The results in this text go back to article PMC9437101, “Curcumin-based-fluorescent probes targeting ALDH1A3 as a promising tool for glioblastoma precision surgery and early diagnosis” (Communications Biology, 2022).

Several values for one entry are separate records, joined by “and”; a condition that tells them apart may be missing. Identical values can stand only once.

This data set can be described thus: Chemical stability and cross reactions with biomolecules assay.
Where [1] appears, read: probe alone diluted in SEC buffer, 10 μM.

Regarding `COc1cc(/C=C/C(O)=C/C(=O)/C=C/c2ccc(OCc3cn(CCOc4ccc(C=O)cc4)nn3)c(OC)c2)ccc1O` [Probe 10], the “probe fluorescence intensity (normalized)” value was 1.625 and 1.575 and 1.499 (Cysteine 100 μM, probe 10 μM, listed as probe B); 1.775 and 1.54 and 1.432 (DMSO 15%, probe 10 μM, listed as probe B); 1.514 and 1.38 and 1.555 (FBS 0.1% v/v, probe 10 μM, listed as probe B); 0.527 and 0.4701 and 0.4219 (Fe(II)Cl2 100 μM, probe 10 μM, listed as probe B); 1.425 and 1.315 and 1.347 (Glutamate 100 μM, probe 10 μM, listed as probe B); 1.731 and 1.746 and 1.699 (Glycine 100 μM, probe 10 μM, listed as probe B). Also, the “probe fluorescence intensity (normalized)” value is, setting by setting: (H2O2 100 μM, probe 10 μM, listed as probe B) 1.861 and 1.755 and 1.838; (Hepes pH= 7.0, 20 mM, probe 10 μM, listed as probe B) 2.228 and 1.749 and 1.834; (Hepes pH= 7.5, 20 mM, probe 10 μM, listed as probe B) 2.088 and 1.728 and 1.48; (Lysine 100 μM, probe 10 μM, listed as probe B) 2.1854 and 2.174 and 1.79; (MgCl2 2.5 mM, probe 10 μM, listed as probe B) 2.445 and 1.42 and 1.343; (NAD 500 μM, probe 10 μM, listed as probe B) 2.023 and 1.791 and 1.594. The “probe fluorescence intensity (normalized)” value runs as follows: (NaCl 150 mM, probe 10 μM, listed as probe B) 1.219 and 1.813 and 1.965; (NaOH 100 μM, probe 10 μM, listed as probe B) 1.498 and 1.488 and 1.365; (Tris pH= 8.0, 20 mM, probe 10 μM, listed as probe B) 1.765 and 1.634 and 1.695; (Tris pH= 8.5, 20 mM, probe 10 μM, listed as probe B) 1.3708 and 1.307 and 1.2219; (Trypsine 0.05 mg/ml, probe 10 μM, listed as probe B) 1.845 and 1.523 and 1.488; (Tryptophan 100 μM, probe 10 μM, listed as probe B) 2.372 and 1.933 and 1.88. In addition, the “probe fluorescence intensity (normalized)” value runs as follows: (Tyrosine 100 μM, probe 10 μM, listed as probe B) 1.87 and 1.826 and 1.7708; (ZnSO4 100 μM, probe 10 μM, listed as probe B) 2.559 and 1.623 and 1.692; under setting [1], 1.88 and 1.626 and 1.601; (β-mercaptoEtOH 1 mM, probe 10 μM, listed as probe B) 2.412 and 1.987 and 1.86.
On to `CCOC(=O)Cn1cc(COc2ccc(/C=C/C(=O)/C=C(O)/C=C/c3ccc(O)c(OC)c3)cc2OC)nn1` [Probe 11], for which the “probe fluorescence intensity (normalized)” value reads like this: (Cysteine 100 μM, probe 10 μM, listed as probe A) 1.599 and 1.451 and 1.353; (DMSO 15%, probe 10 μM, listed as probe A) 1.051 and 1.005 and 0.9985; (FBS 0.1% v/v, probe 10 μM, listed as probe A) 1.524 and 1.471 and 1.375; (Fe(II)Cl2 100 μM, probe 10 μM, listed as probe A) 0.4341 and 0.4478 and 0.4501; (Glutamate 100 μM, probe 10 μM, listed as probe A) 0.9414 and 0.9185 and 0.9094; (Glycine 100 μM, probe 10 μM, listed as probe A) 1.197 and 1.451 and 1.216. Also, the “probe fluorescence intensity (normalized)” value (H2O2 100 μM, probe 10 μM, listed as probe A) is 0.9779 and 1.0853 and 1.053; the “probe fluorescence intensity (normalized)” value (Hepes pH= 7.0, 20 mM, probe 10 μM, listed as probe A) was 1.526 and 1.494 and 1.465; the “probe fluorescence intensity (normalized)” value (Hepes pH= 7.5, 20 mM, probe 10 μM, listed as probe A) was 1.248 and 1.309 and 1.704; the “probe fluorescence intensity (normalized)” value (KCl 150 mM, probe 10 μM, listed as probe A) is 0.9414 and 0.9071 and 1.106; the “probe fluorescence intensity (normalized)” value (Lysine 100 μM, probe 10 μM, listed as probe A) is 0.9733 and 0.9231 and 0.9139; the “probe fluorescence intensity (normalized)” value (MgCl2 2.5 mM, probe 10 μM, listed as probe A) was 1.094 and 0.9276 and 0.9299. Besides, the “probe fluorescence intensity (normalized)” value is 1.302 and 1.337 and 1.177 (NAD 500 μM, probe 10 μM, listed as probe A); 1.117 and 1.069 and 1.522 (NaCl 150 mM, probe 10 μM, listed as probe A); 1.078 and 1.172 and 0.9276 (NaOH 100 μM, probe 10 μM, listed as probe A); 2.369 and 2.308 and 1.992 (Tris pH= 8.0, 20 mM, probe 10 μM, listed as probe A); 1.012 and 1.243 and 0.9825 (Tris pH= 8.5, 20 mM, probe 10 μM, listed as probe A); 1.28 and 1.179 and 1.174 (Trypsine 0.05 mg/ml, probe 10 μM, listed as probe A). The “probe fluorescence intensity (normalized)” value is 1.09 and 0.9802 and 0.882 (Tryptophan 100 μM, probe 10 μM, listed as probe A); 0.8751 and 0.9162 and 0.8888 (Tyrosine 100 μM, probe 10 μM, listed as probe A); 1.06 and 0.9802 and 1.25 (ZnSO4 100 μM, probe 10 μM, listed as probe A); 1.083 and 0.9139 and 1.003 under setting [1]; 1.561 and 1.661 and 1.574 (β-mercaptoEtOH 1 mM, probe 10 μM, listed as probe A).
